Measurements taken from paper doi:10.1101/2021.01.21.427566.

How the values were obtained:
Experiment in all cases: fluorescence anisotropy
[1] = system: Smc3S(Y944C), M3M cross-link reduced by DTT + ScpA + ScpB; details: 1 mM ATP, 2 mM Mg2+, DTT added, little effect on binding
[2] = system: Smc3S(Y944C), M3M cross-linked + ScpA + ScpB; details: 1 mM ATP, 2 mM Mg2+, M3M cross-linked arms, binding not substantially hindered
[3] = system: Smc (wild type) + ScpA + ScpB; details: 1 mM ATP, 2 mM Mg2+

Measured: binding result

TTAGTTGTTCGTAGTGCTCGTCTGGCTCTGGATTACCCGC (double strand) [dsDNA40]
binds: all assays above

Construct, isoform or probe ends are uncertain for at least one entry. For part of these data: At least one verdict rests on a figure or table, not on a statement of the authors.
